This passage reports T/C and survivor count results from PubChem BioAssay AID248 (DTP/NCI, 2004).

The subject of the assay is L1210 leukemia ip in BDF1 mice, survival T/C. As to the kind of experiment: NCI In Vivo Anticancer Drug Screen. Data for tumor model L1210 Leukemia (intraperitoneal) in B6D2F1 (BDF1) mice. As to conditions: higher T/C = longer survival.
The mark [1] stands for this setting: T/C endpoint: mean survival time, dose: 300.0 mg/kg/injection, schedule: Q01DX009 (ip), vehicle: Klucel (hydroxypropylcellulose) (HPC).
The mark [2] stands for this setting: T/C endpoint: mean survival time, dose: 100.0 mg/kg/injection, schedule: Q04DX002 (ip), vehicle: Klucel (hydroxypropylcellulose) (HPC).

The list shows only some results of the screen, not a fair sample: it is rich in T/C values a quarter to a half above the control, in often repeated tests (any T/C) and in doses without a T/C. Further doses and runs are listed elsewhere. T/C: endpoint of the treated group in % of that of the vehicle group. Some entries give survivors of the animals treated and no T/C: the source files T/C as zero there, which appears to mark a toxic dose or a test without result, not a measured value. Some doses without a T/C left all or most animals alive at the check, yet need not have been tolerated: the source hardly ever lists a survival T/C far under the control, and the zero likely stands for such cases as well. Survivors were counted at the toxicity check, usually on the fifth day, unless a day is given; later deaths do not show. Schedule codes are those of the source, taken here to give the interval after Q, in days (D) or hours (H), and the number of doses after X. Some molecules as drawn cover several salts, stereoisomers or complexes of the source; a dose is that of the sample tested. Some doses were run more than once; their values stand side by side, smallest first. For survival time, the PubChem record calls one and a half times the control and up active, and a quarter to a half above the control has no call in these data; cut-offs in other NCI protocols can differ. Some T/C values are followed by the survivors on the day toxicity was checked, most often the fifth; without a count, all were alive then.

Take `CCN(CC)CCNc1ccc(CO)c2sc3ccccc3c(=O)c12`: the T/C (T/C endpoint: mean survival time, dose: 37.5 mg/kg/injection, schedule: Q01DX009 (ip), vehicle: saline) was 125 % of control; the T/C (T/C endpoint: mean survival time, dose: 50.0 mg/kg/injection, schedule: Q01DX009 (ip), vehicle: saline) is 125 and 142 % of control; the T/C (T/C endpoint: mean survival time, dose: 75.0 mg/kg/injection, schedule: Q01DX009 (ip), vehicle: saline) is on record as 123, 135, 158, 178 % of control; the T/C (T/C endpoint: mean survival time, dose: 81.0 mg/kg/injection, schedule: Q01DX009 (ip), vehicle: Klucel (hydroxypropylcellulose) (HPC)) was 128 % of control [5 of 6 alive]; the T/C (T/C endpoint: mean survival time, dose: 107.0 mg/kg/injection, schedule: Q04DX003 (ip), vehicle: saline) was 134 % of control; the T/C (T/C endpoint: mean survival time, dose: 122.0 mg/kg/injection, schedule: Q01DX009 (ip), vehicle: Klucel (hydroxypropylcellulose) (HPC)) is 130 % of control. The T/C is, setting by setting: (T/C endpoint: mean survival time, dose: 132.0 mg/kg/injection, schedule: Q04DX003 (ip), vehicle: saline) 141 % of control; (T/C endpoint: mean survival time, dose: 160.0 mg/kg/injection, schedule: Q04DX003 (ip), vehicle: saline) 145 % of control; (T/C endpoint: mean survival time, dose: 176.0 mg/kg/injection, schedule: Q01DX009 (ip), vehicle: carboxymethylcellulose (CMC)) 135 % of control; (T/C endpoint: mean survival time, dose: 200.0 mg/kg/injection, schedule: Q04DX003 (ip), vehicle: saline) 131 % of control [5 of 6 alive]; (T/C endpoint: mean survival time, dose: 264.0 mg/kg/injection, schedule: Q01DX001 (ip), vehicle: carboxymethylcellulose (CMC)) 144 % of control; under setting [1], 146 % of control. Further, the T/C is 126 % of control [5 of 6 alive] (T/C endpoint: mean survival time, dose: 400.0 mg/kg/injection, schedule: Q01DX001 (ip), vehicle: carboxymethylcellulose (CMC)); 130 % of control (T/C endpoint: median survival time, dose: 16.0 mg/kg/injection, schedule: Q03HX024 (ip), vehicle: saline); 130 % of control (T/C endpoint: median survival time, dose: 32.0 mg/kg/injection, schedule: Q01DX009 (ip), vehicle: saline); 125 % of control (T/C endpoint: median survival time, dose: 32.0 mg/kg/injection, schedule: Q03HX008 (ip), vehicle: saline); 140 % of control (T/C endpoint: median survival time, dose: 32.0 mg/kg/injection, schedule: Q03HX016 (ip), vehicle: saline); 130 % of control (T/C endpoint: median survival time, dose: 32.0 mg/kg/injection, schedule: Q03HX024 (ip), vehicle: saline). Moreover, the T/C is 130 % of control (T/C endpoint: median survival time, dose: 64.0 mg/kg/injection, schedule: Q01DX009 (ip), vehicle: saline); 125 % of control (T/C endpoint: median survival time, dose: 64.0 mg/kg/injection, schedule: Q01DX009 (oral), vehicle: saline); 140 % of control (T/C endpoint: median survival time, dose: 64.0 mg/kg/injection, schedule: Q01DX009 (sc), vehicle: saline); 145 % of control (T/C endpoint: median survival time, dose: 64.0 mg/kg/injection, schedule: Q03HX008 (ip), vehicle: saline); 140 % of control [9 of 10 alive] (T/C endpoint: median survival time, dose: 64.0 mg/kg/injection, schedule: Q03HX016 (ip), vehicle: saline); 125 % of control (T/C endpoint: median survival time, dose: 128.0 mg/kg/injection, schedule: Q01DX009 (oral), vehicle: saline). The T/C (T/C endpoint: median survival time, dose: 128.0 mg/kg/injection, schedule: Q04DX003 (ip), vehicle: saline) is 140 % of control; the T/C (T/C endpoint: median survival time, dose: 128.0 mg/kg/injection, schedule: Q08DX002 (ip), vehicle: saline) was 130 % of control; the T/C (T/C endpoint: median survival time, dose: 512.0 mg/kg/injection, schedule: Q01DX001 (sc), vehicle: saline) was 130 % of control [7 of 10 alive]. The survivor count reads like this: (T/C endpoint: mean survival time, dose: 150.0 mg/kg/injection, schedule: Q01DX009 (ip), vehicle: saline) 6 of 6; (T/C endpoint: mean survival time, dose: 200.0 mg/kg/injection, schedule: Q01DX009 (ip), vehicle: Klucel (hydroxypropylcellulose) (HPC)) 6 of 6; (T/C endpoint: mean survival time, dose: 240.0 mg/kg/injection, schedule: Q04DX003 (ip), vehicle: saline) 3 of 6; under setting [1], 6 of 6; (T/C endpoint: mean survival time, dose: 300.0 mg/kg/injection, schedule: Q01DX009 (ip), vehicle: saline) 2 of 6; (T/C endpoint: mean survival time, dose: 400.0 mg/kg/injection, schedule: Q01DX001 (ip), vehicle: saline) 0 of 6. Further, the survivor count is 2 of 6 (T/C endpoint: mean survival time, dose: 400.0 mg/kg/injection, schedule: Q01DX009 (ip), vehicle: carboxymethylcellulose (CMC)); 0 of 6 (T/C endpoint: mean survival time, dose: 600.0 mg/kg/injection, schedule: Q01DX001 (ip), vehicle: carboxymethylcellulose (CMC)); 0 of 6 (T/C endpoint: mean survival time, dose: 600.0 mg/kg/injection, schedule: Q01DX009 (ip), vehicle: carboxymethylcellulose (CMC)); 8 of 8 (T/C endpoint: median survival time, dose: 64.0 mg/kg/injection, schedule: Q03HX024 (ip), vehicle: saline); 9 of 10 (T/C endpoint: median survival time, dose: 128.0 mg/kg/injection, schedule: Q01DX009 (ip), vehicle: saline); 1 of 10 (T/C endpoint: median survival time, dose: 128.0 mg/kg/injection, schedule: Q03HX008 (ip), vehicle: saline). For the same molecule, the survivor count is recorded as 0 of 10 (T/C endpoint: median survival time, dose: 128.0 mg/kg/injection, schedule: Q03HX016 (ip), vehicle: saline); 1 of 10 (T/C endpoint: median survival time, dose: 256.0 mg/kg/injection, schedule: Q01DX001 (ip), vehicle: saline); 5 of 10 (T/C endpoint: median survival time, dose: 256.0 mg/kg/injection, schedule: Q01DX001 (sc), vehicle: saline); 10 of 10 (T/C endpoint: median survival time, dose: 256.0 mg/kg/injection, schedule: Q01DX009 (oral), vehicle: saline); 8 of 10 (T/C endpoint: median survival time, dose: 256.0 mg/kg/injection, schedule: Q01DX009 (sc), vehicle: saline); 7 of 9 (T/C endpoint: median survival time, dose: 256.0 mg/kg/injection, schedule: Q04DX003 (ip), vehicle: saline). The survivor count was 6 of 10 (T/C endpoint: median survival time, dose: 256.0 mg/kg/injection, schedule: Q08DX002 (ip), vehicle: saline); 0 of 10 (T/C endpoint: median survival time, dose: 512.0 mg/kg/injection, schedule: Q01DX001 (ip), vehicle: saline); 5 of 10 and 6 of 10 (T/C endpoint: median survival time, dose: 512.0 mg/kg/injection, schedule: Q01DX009 (oral), vehicle: saline); 2 of 10 (T/C endpoint: median survival time, dose: 512.0 mg/kg/injection, schedule: Q04DX003 (ip), vehicle: saline); 2 of 9 (T/C endpoint: median survival time, dose: 512.0 mg/kg/injection, schedule: Q08DX002 (ip), vehicle: saline); 2 of 10 and 5 of 10 (T/C endpoint: median survival time, dose: 1024.0 mg/kg/injection, schedule: Q01DX001 (oral), vehicle: saline). In addition, the survivor count (T/C endpoint: median survival time, dose: 1024.0 mg/kg/injection, schedule: Q01DX001 (sc), vehicle: saline) is on record as 0 of 10; the survivor count (T/C endpoint: median survival time, dose: 2048.0 mg/kg/injection, schedule: Q01DX001 (oral), vehicle: saline) is 0 of 10 and 1 of 10.

Take `CCCCN(CCCl)C1c2ccccc2-c2ccccc21`: the survivor count under setting [2] is recorded as 3 of 3.

For the molecule `CCCCCCCCCCCCCCCCCC[n+]1cccc(C(=O)N2CCOCC2)c1`, the survivor count was 6 of 6 (T/C endpoint: mean survival time, dose: 200.0 mg/kg/injection, schedule: Q04DX003 (ip), vehicle: Klucel (hydroxypropylcellulose) (HPC)) and 0 of 6 (T/C endpoint: mean survival time, dose: 400.0 mg/kg/injection, schedule: Q04DX003 (ip), vehicle: Klucel (hydroxypropylcellulose) (HPC)).

As to `CCNc1nc(C)c2nc(C(=O)NCc3ccccc3)c(=O)n(CC)c2n1`, the survivor count (T/C endpoint: mean survival time, dose: 400.0 mg/kg/injection, schedule: Q01DX001 (ip), vehicle: Klucel (hydroxypropylcellulose) (HPC)) is listed as 1 of 3.

As to `CCC[CH2][Sn]([I])([CH2]C)[CH2]C`, the survivor count was 0 of 3 (T/C endpoint: mean survival time, dose: 12.5 mg/kg/injection, schedule: Q04DX002 (ip), vehicle: Klucel (hydroxypropylcellulose) (HPC)); 0 of 3 (T/C endpoint: mean survival time, dose: 25.0 mg/kg/injection, schedule: Q04DX002 (ip), vehicle: Klucel (hydroxypropylcellulose) (HPC)); 0 of 3 and 1 of 3 (T/C endpoint: mean survival time, dose: 50.0 mg/kg/injection, schedule: Q04DX002 (ip), vehicle: Klucel (hydroxypropylcellulose) (HPC)); 0 of 3 under setting [2]; 0 of 3 (T/C endpoint: mean survival time, dose: 200.0 mg/kg/injection, schedule: Q04DX002 (ip), vehicle: Klucel (hydroxypropylcellulose) (HPC)).

In the case of `O=C/C=C/c1cccnc1`, the survivor count (T/C endpoint: mean survival time, dose: 100.0 mg/kg/injection, schedule: Q01DX009 (ip), vehicle: saline with Tween-80) was 6 of 6 and the survivor count (T/C endpoint: mean survival time, dose: 400.0 mg/kg/injection, schedule: Q01DX009 (ip), vehicle: saline with Tween-80) is reported as 0 of 6.
